For 1 molecule, binding results are on record in publication PMC12192239.

This assay addresses GST-GhA01EP1 (GST-GhA01EP1-pGS21T) (upland cotton (Gossypium hirsutum)). As to the kind of experiment: affinity purification with mass spectrometry; GST-GhA01EP1 (or GST) on GST-beads incubated with crude protein extract of GhA01EP1-transgenic Arabidopsis whole seedlings; washed twice with TNT Buffer (20 mmol/L Tris pH 8.0, 125 mmol/L NaCl, 0.5% TritonX-100); SDS-PAGE band cut, LC-MS/MS (TripleTOF 5600+, Mascot 2.3, Uniprot database); only the target purified.

These are yes or no findings as the source states them, for the method shown. In cells and extracts the contact can be indirect. A yes stands for co-enrichment or nearness to the bait. Other partners may have been found.

B1: SCPL35, serine carboxypeptidase-like protein (endogenous, Arabidopsis) (enzyme, UniProt Q9LEY1 21-480)
chain: RKPEKKVTISSSGRKEDDLVTGLPGQPPVNFKHYAGYVNLGPEQKQKALFYWFFEAQQNSSRRPLVLWLNGGPGCSSIAYGAAQELGPFLVHDNGGKLTYNHFSWNKEANMLFLEAPVGVGFSYTNNSMDLQKLGDEVTASDSLAFLINWFMKFPEFRSSEFYISGESYAGHYVPQLAEVIYDRNKKVTKDSSINLKGFMIGNAVINEATDMAGLVDYAWSHAIISDEVHTSIHGSCSFEEDTTNKTEQCYNNFKGFMDAYNDIDIYSIYTPVCLSSLLSSSPRKPKIVVSPRLLTFDDLWDKFPAGYDPCTESYAENYFNRKDVQVALHANVTNLPYPYSPCSGVIKRWSDAPSTMIPIIQKLLTGGLRIWIYSGDTDGRVPVTSTRYSIKKMGLKVESPWRSWFHKSQVAGWVETYAGGLNFVTVRGAGHQVPALAPAQSLTLFSHFISSVPLPSKRF
On to B1, for which the binding result is recorded as “binds”.
